Results reported in publication PMC9655520.
Results are given in words; binding and its absence hold for the method and conditions named. Binding seen in cells or lysates may run through a third protein. Some binding calls cover weakened binding; strength is not graded here. Tags and fused reporters may be left off the sequences shown.

Chains of the proteins cited; added tags and fusions are not shown.
UniProt Q13535: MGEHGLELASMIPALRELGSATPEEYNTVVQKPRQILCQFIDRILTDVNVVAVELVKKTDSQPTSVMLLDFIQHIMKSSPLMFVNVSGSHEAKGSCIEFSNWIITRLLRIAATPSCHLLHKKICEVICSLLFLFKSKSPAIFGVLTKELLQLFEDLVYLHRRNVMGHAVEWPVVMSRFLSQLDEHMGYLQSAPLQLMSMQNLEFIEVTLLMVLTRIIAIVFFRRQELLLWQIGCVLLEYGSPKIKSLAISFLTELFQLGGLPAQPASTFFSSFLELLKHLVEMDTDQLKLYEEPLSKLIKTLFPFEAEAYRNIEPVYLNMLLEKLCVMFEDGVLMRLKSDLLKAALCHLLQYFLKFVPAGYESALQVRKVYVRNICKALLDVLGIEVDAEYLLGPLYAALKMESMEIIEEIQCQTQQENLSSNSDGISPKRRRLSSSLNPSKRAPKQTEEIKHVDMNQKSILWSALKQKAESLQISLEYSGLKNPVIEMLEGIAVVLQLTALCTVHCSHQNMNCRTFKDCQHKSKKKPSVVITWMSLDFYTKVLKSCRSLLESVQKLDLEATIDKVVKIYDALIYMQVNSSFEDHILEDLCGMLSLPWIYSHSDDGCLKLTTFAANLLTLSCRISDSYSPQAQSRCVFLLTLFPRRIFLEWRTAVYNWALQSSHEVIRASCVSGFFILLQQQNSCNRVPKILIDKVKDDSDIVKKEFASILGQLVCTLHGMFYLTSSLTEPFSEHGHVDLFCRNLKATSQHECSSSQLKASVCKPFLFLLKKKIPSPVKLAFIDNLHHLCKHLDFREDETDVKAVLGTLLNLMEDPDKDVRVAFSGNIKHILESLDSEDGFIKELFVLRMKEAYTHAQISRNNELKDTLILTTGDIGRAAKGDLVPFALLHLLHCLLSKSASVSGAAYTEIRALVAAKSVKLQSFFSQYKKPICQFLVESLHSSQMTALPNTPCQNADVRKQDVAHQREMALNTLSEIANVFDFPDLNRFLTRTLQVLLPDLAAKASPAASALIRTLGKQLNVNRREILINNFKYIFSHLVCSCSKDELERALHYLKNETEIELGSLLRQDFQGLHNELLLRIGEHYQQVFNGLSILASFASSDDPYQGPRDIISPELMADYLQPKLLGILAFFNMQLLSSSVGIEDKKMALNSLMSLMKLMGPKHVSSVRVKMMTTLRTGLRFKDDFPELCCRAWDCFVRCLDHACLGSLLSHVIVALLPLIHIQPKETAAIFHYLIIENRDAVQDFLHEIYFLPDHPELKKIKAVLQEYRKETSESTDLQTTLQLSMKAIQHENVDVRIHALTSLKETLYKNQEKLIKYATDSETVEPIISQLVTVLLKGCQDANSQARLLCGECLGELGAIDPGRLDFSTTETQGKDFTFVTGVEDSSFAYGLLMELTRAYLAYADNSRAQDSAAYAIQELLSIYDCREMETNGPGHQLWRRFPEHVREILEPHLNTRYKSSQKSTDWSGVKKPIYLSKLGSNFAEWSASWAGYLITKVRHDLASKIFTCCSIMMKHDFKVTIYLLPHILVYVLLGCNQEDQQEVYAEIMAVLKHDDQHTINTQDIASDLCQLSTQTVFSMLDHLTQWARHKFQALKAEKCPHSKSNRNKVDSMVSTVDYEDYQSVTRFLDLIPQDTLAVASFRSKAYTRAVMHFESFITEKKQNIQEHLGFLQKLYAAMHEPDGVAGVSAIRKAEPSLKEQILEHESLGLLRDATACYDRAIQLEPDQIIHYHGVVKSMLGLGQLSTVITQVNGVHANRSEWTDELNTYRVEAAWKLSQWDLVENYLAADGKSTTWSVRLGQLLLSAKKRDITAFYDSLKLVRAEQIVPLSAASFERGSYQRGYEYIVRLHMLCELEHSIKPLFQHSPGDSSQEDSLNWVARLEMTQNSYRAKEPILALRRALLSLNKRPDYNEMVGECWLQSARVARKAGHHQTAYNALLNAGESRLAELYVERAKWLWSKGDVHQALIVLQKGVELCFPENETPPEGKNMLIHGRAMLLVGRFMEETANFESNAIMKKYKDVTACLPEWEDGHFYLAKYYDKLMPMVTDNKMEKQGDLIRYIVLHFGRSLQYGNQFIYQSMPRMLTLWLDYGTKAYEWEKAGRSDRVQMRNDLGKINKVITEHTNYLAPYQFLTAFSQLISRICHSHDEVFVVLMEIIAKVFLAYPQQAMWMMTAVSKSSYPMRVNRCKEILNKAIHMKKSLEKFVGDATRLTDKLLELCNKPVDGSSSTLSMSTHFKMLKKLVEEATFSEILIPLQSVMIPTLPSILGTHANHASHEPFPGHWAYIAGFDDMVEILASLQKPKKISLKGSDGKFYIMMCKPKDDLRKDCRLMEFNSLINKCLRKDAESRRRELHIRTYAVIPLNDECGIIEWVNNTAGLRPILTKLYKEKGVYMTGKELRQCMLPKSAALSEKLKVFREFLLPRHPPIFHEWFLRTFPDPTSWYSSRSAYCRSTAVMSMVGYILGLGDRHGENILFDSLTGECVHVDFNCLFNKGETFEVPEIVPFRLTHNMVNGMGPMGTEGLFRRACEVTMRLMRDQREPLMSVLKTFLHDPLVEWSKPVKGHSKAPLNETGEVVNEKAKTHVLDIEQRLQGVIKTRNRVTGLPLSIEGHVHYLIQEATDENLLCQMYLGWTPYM

Molecular target: T1, Flag-DCAF13 (DDB1- and CUL4-associated factor 13) (UniProt Q9NV06)
T1 sequence: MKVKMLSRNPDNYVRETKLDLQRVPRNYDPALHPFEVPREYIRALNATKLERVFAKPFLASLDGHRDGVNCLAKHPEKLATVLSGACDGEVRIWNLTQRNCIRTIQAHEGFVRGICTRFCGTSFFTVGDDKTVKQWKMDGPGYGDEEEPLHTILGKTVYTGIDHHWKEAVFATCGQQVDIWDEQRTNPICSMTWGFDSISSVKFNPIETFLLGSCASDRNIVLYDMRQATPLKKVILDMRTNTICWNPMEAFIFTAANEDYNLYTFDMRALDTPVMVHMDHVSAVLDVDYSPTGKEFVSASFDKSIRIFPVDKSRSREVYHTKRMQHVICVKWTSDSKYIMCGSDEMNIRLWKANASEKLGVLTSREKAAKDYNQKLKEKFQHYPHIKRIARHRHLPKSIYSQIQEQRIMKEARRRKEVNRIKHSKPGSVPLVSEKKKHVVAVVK
Assay: co-IP; Flag-co-IP-WB from FaDu cells with exogenous Flag-DCAF13, under hypoxia for 12 h; blots for ATR and P53

- binding: binds
Substance: ATR (from UniProt Q13535 1-2644)
